Experimental data published in paper PMC10939200.
Results are given in words; binding and its absence hold for the method and conditions named. Binding seen in cells or lysates may run through a third protein. A result given as binding can be weak or reduced; the word gives no strength.

Molecular target: GST-DysSR22-23 (Dystrophin spectrin repeats 22-23 fused to GST) (Drosophila melanogaster)
Experiment: pull-down; GST or GST-DysSR22-23 on Glutathione Sepharose 4B with in vitro translated S^35-labeled Exo70; 50mM Tris HCl, 100mM NaCl, 0.01% Triton-X100, 0.1% BSA at 20°C for 12 hours; only the target purified

binding: binds
B1: Exo70 (exocyst subunit) (protein, UniProt Q9VSJ8 1-693)
chain: MNNLDSSLQAHNKLEKEATNLALLKDRVDKYHDLSTQMSSILTIFEKRLGNLEQTILPVYQETEQLQKRQQNLEATLNCLESVLSHYDVSQEVCQLIHQGPVEGNISVFLDALAKLRDANDYFRHNNSQSVELENVTSLFNTGCEGLSQHYSMLLKKHSAPLKPVELLDLIYIEDDSSDEYTSFRQLSQTTREELYTISHWLEQNLREYTNIYATERGEVVLRSLQLLKDHQKSNSWGHEALRPRHSGRQTEPKKTTSARLQQIFEKKANKLYLRATQTIEQSTGFSIKKASSHSDHLTSEDLMDGDQELDKYLVMLLGLQRLLNWERAIMIDIIPQSKHNEVFATLAYNAIDLVVKDAEAITQRILRCISRKEWTSALGIFSALKRVILLQPDIDRTYDPAQREQLKKVLKKLQHTGAKALEHFLDVVKGESSTNIVGQSNVPKDATVHELTSNTIWFIEHLYDHFDVIGSILAQDVLYSTQLDTILMKKALPVEERNKALLAIYIKKALAELNLSIMNKCEQYNDQATKHLFRLNNIHYILKSLQRSNLIDLVTLAEPECEHSYMEMIRELKASYQKTWSKMLVGIYSLDELPKPVAGKVKDKDRSVLKERFSNFNKDFEEACKIQRGISIPDVILREGIKRDNVEHILPIYNRFYEIYSGVHFSKNPDKYVKYRQHEINAMLSKLFDDSA
modifications: S^35-labeled
